The source of these data is article PMC2742894, “Crystal Structure of the N-Acetylmannosamine Kinase Domain of GNE” (PLoS ONE, 2009).

No constants are given. Whether binding was seen depends on the method and setting. Some entries that bind do so weakly or less than the wild type.

The target in assay [1] is N-acetylmannosamine kinase domain of UDP-GlcNAc 2-epimerase/N-acetylmannosamine kinase (GNE), residues 406-720 (human) (UniProt Q9Y223). Put plainly: crystal structure; ligand-free form, space group P3(1)21, three molecules in the asymmetric unit; interface analysis with the PISA server; crystals grown with 5 mM ADP and 1:100 chymotrypsin; both purified.
Assay [2] shares this target. Put plainly: SEC; populations of oligomeric states at different protein concentrations; data not shown; both purified. (Size exclusion chromatography separates by hydrodynamic size, large species first.)

B1: N-acetylmannosamine kinase domain of UDP-GlcNAc 2-epimerase/N-acetylmannosamine kinase (GNE), residues 406-720 (domain or fragment, human, UniProt Q9Y223 406-720, looked up)
chain: TLSALAVDLGGTNLRVAIVSMKGEIVKKYTQFNPKTYEERINLILQMCVEAAAEAVKLNCRILGVGISTGGRVNPREGIVLHSTKLIQEWNSVDLRTPLSDTLHLPVWVDNDGNCAALAERKFGQGKGLENFVTLITGTGIGGGIIHQHELIHGSSFCAAELGHLVVSLDGPDCSCGSHGCIEAYASGMALQREAKKLHDEDLLLVEGMSVPKDEAVGALHLIQAAKLGNAKAQSILRTAGTALGLGVVNILHTMNPSLVILSGVLASHYIHIVKDVIRQQALSSVQDVDVVVSDLVDPALLGAASMVLDYTTRR
notes: UDP-GlcNAc 2-epimerase/N-acetylmannosamine kinase (GNE), human, kinase domain, residues 406-720; cDNA codon optimized for E. coli and synthesized; Cloned into pET28-MHL (gi:134105571); For crystallization 1:100 chymotrypsin (w/w) and 5 mM ADP were added to the protein stock, so the crystallized chain may be trimmed; residues 475-498 are not seen in the electron density; A …
For B1, the binding result in assay [1] and in assay [2] was “binds” each time.
